Assay results published in PubChem BioAssay AID504847 (National Center for Advancing Translational Sciences (NCATS), 2011).
“And” between values parts separate entries of the source, which are not always exact repeats. Equal entries are not always repeated. Hit rate of the full screen: of about 400,000 compounds, about 3,700 (0.93%) were called active. The inconclusive results got no clear call from the source; some entries with a clear call stand among them for comparison. The call rests on the fitted dose curve; in most records, active means well fitted inhibition curve with a large enough effect; inconclusive means small, poorly fitted or top-dose-only effect, or another doubt; inactive means no such curve, though single readings can be large or run the other way. Potencies of inconclusive entries are doubtful fits and often do not repeat.

The chains behind the UniProt entries cited, without tags or fusion partners. Where a name states a change or a piece, a line headed by the entry shows the natural chain unless it says otherwise.
UniProt P11473: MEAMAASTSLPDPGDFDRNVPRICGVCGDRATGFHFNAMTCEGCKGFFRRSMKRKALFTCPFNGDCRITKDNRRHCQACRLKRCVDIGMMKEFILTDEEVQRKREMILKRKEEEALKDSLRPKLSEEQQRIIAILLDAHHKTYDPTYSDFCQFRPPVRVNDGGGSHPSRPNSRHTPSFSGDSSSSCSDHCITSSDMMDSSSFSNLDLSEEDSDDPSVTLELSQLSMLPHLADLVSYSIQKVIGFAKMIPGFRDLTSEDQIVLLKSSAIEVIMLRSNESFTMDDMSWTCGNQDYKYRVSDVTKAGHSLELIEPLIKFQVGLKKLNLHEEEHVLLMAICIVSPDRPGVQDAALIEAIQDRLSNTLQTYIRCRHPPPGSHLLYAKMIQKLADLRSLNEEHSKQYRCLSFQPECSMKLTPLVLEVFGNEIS

Target: Vitamin D3 receptor (Homo sapiens) (UniProt P11473)
Assay: Inhibitors of the vitamin D receptor (VDR): qHTS
Conditions: VDR-SRC2-3 peptide fluorescence polarization, 2 h; max response, negative = inhibition: stronger effect = lower value
In short: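 Inhibition of the VDR/SRC2-3 peptide interaction is quantified by fluorescence polarization. Compounds (23 nl, pintool) incubate with the reagents for 2 hours at ambient room temperature.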
On the % scale 0 is the no-effect control and ±100 the full control effect; potency means the concentration at half of the fitted maximal effect.

Structure (SMILES) | Potency | max response, negative = inhibition
Cc1ccc(-c2ccc(C(=O)NCc3ccccc3)o2)c2ccccc12 | inconclusive: 56.2 µM [inhibitor, partial curve, poor fit] | –
CNCCC=C1c2ccccc2CCc2ccccc21 | inconclusive: 89.1 µM [inhibitor, partial curve, poor fit] | –
O=[N+]([O-])C(=C1Nc2ccccc2N1)C(Cl)=C(Cl)Cl | inconclusive: 56.2 µM [inhibitor, partial curve, poor fit] | –
Cc1ccc(-c2csc(C3C(N)=NC(S)=C(C#N)C34CCCCC4)n2)cc1 (configuration not stated) | inconclusive: 79.4 µM [inhibitor, single point] | –
CN(C)C(=O)c1ccc(-c2cc3onc(-c4ccccc4)c3c(=O)n2C)cc1 | – | inactive: -3.63%
CN(Cc1ccco1)c1ncnc2ccc(-c3cccc(NS(C)(=O)=O)c3)cc12 | inconclusive: 44.7 µM [inhibitor, full curve] | –
CCN1CC(=O)Nc2cc(S(=O)(=O)N3CCOCC3)ccc21 | inconclusive: 63.1 µM [inhibitor, partial curve, poor fit] | –
CC(C)(C)c1csc(NC(=O)Cn2cnc3ccccc3c2=O)n1 | inconclusive: 79.4 µM [inhibitor, partial curve, poor fit] | –
O=C(CN1C(=O)c2ccccc2S1(=O)=O)NCCSCc1ccco1 | inconclusive: 89.1 µM [inhibitor, partial curve, poor fit] | –
O=C(O)/C=C/C(=O)c1c(-c2ccccc2)[nH]c2ccccc12 | inconclusive: 56.2 µM [inhibitor, partial curve, poor fit] | –
COCc1cc(O)c(O)c(O)c1-c1c(COC)cc(O)c(O)c1O | active: 15.8 µM | –
CCOc1cc(-c2noc(N)c2C#N)cc(OCC)c1OCC | – | inactive: -0.615%
Nc1c(C(=O)OCC2CCCO2)c2nc3ccccc3nc2n1C1CCCCC1 (configuration not stated) | inconclusive: 14.1 µM [inhibitor, partial curve, poor fit] | –
O=C(CSc1nnc(SCc2ccccc2)s1)NNC(=S)Nc1ccccc1 | inconclusive: 11.2 µM [inhibitor, partial curve, poor fit] | –
COc1cc(/C=N/NC(=O)c2cccc(S(=O)(=O)N3CCCCC3)c2)cc(Br)c1O | inconclusive: 79.4 µM [inhibitor, single point] | –
CCCCn1c(=O)n(C)c(=O)c2c(C(F)(F)F)cc(-c3ccncc3)nc21 | inconclusive: 17.8 µM [inhibitor, partial curve, poor fit] | –
O=c1cc2c(nn1Cc1ccccc1)-c1ccccc1CC2 | – | inactive: -1.25%
COCCNC(=S)Nc1ccc(N2CCOCC2)c(S(=O)(=O)Nc2ccccc2OC)c1 | inconclusive: 56.2 µM [inhibitor, partial curve, poor fit] | –
N#Cc1nc(-c2ccc(Cl)cc2)oc1NCc1ccco1 | – | inactive: -11.4%

Looked up by compound from above:
Structure (SMILES) | Potency | max response, negative = inhibition
O=C(CN1C(=O)c2ccccc2S1(=O)=O)NCCSCc1ccco1 | inconclusive: 89.1 µM [inhibitor, partial curve, poor fit] | –
O=c1cc2c(nn1Cc1ccccc1)-c1ccccc1CC2 | – | inactive: -1.25%

Next results

Structure (SMILES) | Potency | max response, negative = inhibition
O=C(NCCn1ccc2ccccc21)c1cccc([N+](=O)[O-])c1 | inconclusive: 89.1 µM [inhibitor, single point] | –
CCCC(=O)C1=C(c2ccccc2)C(C#N)(C#N)C(C#N)=C1N | inconclusive: 11.2 µM [inhibitor, full curve, poor fit] | –
N#Cc1c(-c2ccccc2)nc(SCC(=O)Nc2ccc(OC(F)(F)Cl)cc2)[nH]c1=O | inconclusive: 89.1 µM [inhibitor, partial curve, poor fit] | –
C/C=C(/CC[C@@H](C)[C@H]1CCC2C3=CC[C@H]4[C@H](C)[C@@H](O)CC[C@]4(C)C3CC[C@@]21C)C(C)C (some centres not stated) | inconclusive: 35.5 µM [inhibitor, partial curve] | –
O=C1CSC(=S)N1N=Cc1ccc(Cl)s1 | inconclusive: 100 µM [inhibitor, single point] | –
Cc1ccc2c(c1)c(=O)c1c3n2CCN(C(=O)CCl)C3CC1 (configuration not stated) | inconclusive: 3.98 µM [inhibitor, partial curve, poor fit] | –
Cc1cc(C(C)(C)C)ccc1OCCN(C)C | inconclusive: 35.5 µM [inhibitor, partial curve, poor fit] | –
O=C1/C(=C\c2ccc([N+](=O)[O-])cc2)CS(=O)(=O)C/C1=C/c1ccc([N+](=O)[O-])cc1 | active: 39.8 µM | –
O=c1c(C(c2ccc(Cl)cc2)c2c(O)nc3n(c2=O)CCS3)c(O)nc2n1CCS2 | inconclusive: 56.2 µM [inhibitor, partial curve, poor fit] | –
O=C(/C=C/c1ccc(OC2CSC2)cc1)c1ccc(Cl)cc1 | inconclusive: 89.1 µM [inhibitor, single point] | –
COc1ccccc1N1CCN(C(=O)c2ccc(C(C)(C)C)cc2)CC1 | inconclusive: 3.55 µM [inhibitor, partial curve, poor fit] | –
CC1=NN(c2ccc(C)c(C)c2)C(=O)C1C(c1cccc(O)c1)C1C(=O)N(c2ccc(C)c(C)c2)N=C1C (configuration not stated) | inconclusive: 56.2 µM [inhibitor, partial curve, poor fit] | –
Cc1cc2ccccc2n1CCNC(=O)c1cc(C(F)(F)F)cc(C(F)(F)F)c1 | – | inactive: -13%
NC(=S)n1[nH]c(-c2ccc([N+](=O)[O-])cc2)c(N=Nc2cccc([N+](=O)[O-])c2)c1=O | inconclusive: 89.1 µM [inhibitor, single point] | –
Cc1cc(C)n(CCCNC(=O)C2CC(=O)N(Cc3ccccc3)C2)n1 (configuration not stated) | – | inactive: -13.6%
Cc1ccc(C(=O)Nc2ccc(S(=O)(=O)O)c3cc(S(=O)(=O)O)cc(S(=O)(=O)O)c23)cc1NC(=O)c1cccc(NC(=O)Nc2cccc(C(=O)Nc3cc(C(=O)Nc4ccc(S(=O)(=O)O)c5cc(S(=O)(=O)O)cc(S(=O)(=O)O)c45)ccc3C)c2)c1 | active: 35.5 µM and active: 22.4 µM | –
COC(=O)c1ccc(C2NC(c3ccc4c(c3)OCO4)=CC(c3ccccc3O)N2)cc1 (configuration not stated) | inconclusive: 50.1 µM [inhibitor, partial curve, poor fit] | –
CC(C)NC(=O)/C(C#N)=C/c1cccc(NC(=O)c2ccccc2Cl)c1 | inconclusive: 56.2 µM [inhibitor, partial curve, poor fit] | –
